Measured values taken from PMC5868994.
Read-outs that look alike come from different tables or passages of the source. No constants are given. Whether binding was seen depends on the method and setting. For part of these data: In cells and extracts the contact can be indirect. Some binding calls cover weakened binding; strength is not graded here. Sequences can lack the tags named with a protein. Each block holds one molecule with its values, some of them ahead of it.

Amino acid sequences for entries named in this document (tags omitted).
UniProt Q8W234: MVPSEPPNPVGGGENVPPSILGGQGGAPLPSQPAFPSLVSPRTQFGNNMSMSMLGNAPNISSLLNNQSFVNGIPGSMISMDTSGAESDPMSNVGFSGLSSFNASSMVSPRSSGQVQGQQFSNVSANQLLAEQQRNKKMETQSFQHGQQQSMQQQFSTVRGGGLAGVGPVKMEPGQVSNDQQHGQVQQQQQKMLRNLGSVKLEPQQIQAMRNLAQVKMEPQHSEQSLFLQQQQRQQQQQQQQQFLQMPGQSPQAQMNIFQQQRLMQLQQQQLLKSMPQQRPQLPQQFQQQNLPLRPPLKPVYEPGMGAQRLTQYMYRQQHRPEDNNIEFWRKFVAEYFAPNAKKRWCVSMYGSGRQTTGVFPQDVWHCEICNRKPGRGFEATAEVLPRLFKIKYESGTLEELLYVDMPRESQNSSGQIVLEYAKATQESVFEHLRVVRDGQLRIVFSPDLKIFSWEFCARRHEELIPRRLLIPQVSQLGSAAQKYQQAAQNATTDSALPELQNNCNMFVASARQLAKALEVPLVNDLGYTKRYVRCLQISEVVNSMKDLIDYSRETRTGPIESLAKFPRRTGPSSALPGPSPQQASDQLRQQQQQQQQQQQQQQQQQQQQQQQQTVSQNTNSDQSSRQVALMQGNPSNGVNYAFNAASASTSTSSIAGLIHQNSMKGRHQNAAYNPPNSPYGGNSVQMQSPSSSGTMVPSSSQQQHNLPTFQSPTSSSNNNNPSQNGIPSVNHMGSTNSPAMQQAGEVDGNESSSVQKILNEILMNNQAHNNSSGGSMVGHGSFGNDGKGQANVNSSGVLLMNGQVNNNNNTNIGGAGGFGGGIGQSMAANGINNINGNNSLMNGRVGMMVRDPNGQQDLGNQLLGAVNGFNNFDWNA

Legend:
[1] = molecular target: T1, B…US (BP/KNOTTED-LIKE ARABIDOPSIS THALIANA1), Arabidopsis, BiFC fusion (Arabidopsis thaliana) (UniProt P46639); assay: split reporter; BiFC with YFP halves (pYFPN43, pYFPC43) in tobacco leaf epidermis cells, with p19 silencing suppressor; images 72 h after infiltration
T1 sequence: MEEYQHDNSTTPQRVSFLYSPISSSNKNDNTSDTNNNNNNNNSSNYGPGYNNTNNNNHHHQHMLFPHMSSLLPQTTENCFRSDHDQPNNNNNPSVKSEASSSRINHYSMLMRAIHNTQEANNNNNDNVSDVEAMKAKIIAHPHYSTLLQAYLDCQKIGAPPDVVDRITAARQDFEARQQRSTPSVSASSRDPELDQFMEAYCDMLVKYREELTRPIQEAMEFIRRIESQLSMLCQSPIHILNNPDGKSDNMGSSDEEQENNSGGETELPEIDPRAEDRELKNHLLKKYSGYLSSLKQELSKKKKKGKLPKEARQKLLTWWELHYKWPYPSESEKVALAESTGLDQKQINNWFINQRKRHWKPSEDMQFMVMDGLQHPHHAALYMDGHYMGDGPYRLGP

[2] = molecular target: T2, …, Arabidopsis, BiFC fusion (Arabidopsis thaliana) (UniProt O81313); assay: as above
T2 sequence: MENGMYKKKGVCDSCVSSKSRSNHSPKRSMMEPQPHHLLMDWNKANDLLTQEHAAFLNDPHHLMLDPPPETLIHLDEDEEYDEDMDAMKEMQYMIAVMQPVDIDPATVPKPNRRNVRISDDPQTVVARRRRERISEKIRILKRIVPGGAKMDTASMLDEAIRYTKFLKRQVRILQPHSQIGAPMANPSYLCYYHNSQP

[3] = molecular target: T3, B…US (BP/KNOTTED-LIKE ARABIDOPSIS THALIANA1), Arabidopsis, yeast two-hybrid fusion (Arabidopsis thaliana) (UniProt P46639); assay: two-hybrid; GAL4 system (pGADT7, pGBKT7), yeast strain AH109, co-transformation, 28°C; selective medium -W-L-H-A, with different concentrations of 3-aminotriazole
T3 sequence: T1 sequence

[4] = molecular target: T4, …, Arabidopsis, yeast two-hybrid fusion (Arabidopsis thaliana) (UniProt O81313); assay: as above
T4 sequence: T2 sequence

[5] = molecular target: T1, B…US (BP/KNOTTED-LIKE ARABIDOPSIS THALIANA1), Arabidopsis, BiFC fusion (Arabidopsis thaliana); assay: split reporter; BiFC with YFP halves (pYFPN43, pYFPC43) in tobacco leaf epidermis cells, with p19 silencing suppressor; images 72 h after infiltration; remark: listed apart in the source
[6] = molecular target: T3, B…US (BP/KNOTTED-LIKE ARABIDOPSIS THALIANA1), Arabidopsis, yeast two-hybrid fusion (Arabidopsis thaliana); assay: two-hybrid; GAL4 system (pGADT7, pGBKT7), yeast strain AH109, co-transformation, 28°C; selective medium -W-L-H-A, with different concentrations of 3-aminotriazole; remark: listed apart in the source

binding [1]: binds
binding [2]: binds
Molecule: SEUSS, Arabidopsis, BiFC fusion (from UniProt Q8W234 1-877)

binding [3]: binds
binding [4]: binds
Molecule: SEUSS, Arabidopsis, yeast two-hybrid fusion (from UniProt Q8W234 1-877)

binding [5]: binds
B1: …, Arabidopsis, BiFC fusion (protein, UniProt O81313 1-198)
chain: T2 sequence

binding [6]: binds
B2: …, Arabidopsis, yeast two-hybrid fusion (protein, UniProt O81313 1-198)
chain: T2 sequence
